In assay [1] the target is leucine zipper (LZ) domain of SWI3B fused with BD (Arabidopsis thaliana). In words: two-hybrid; directed test in yeast AH109; bait pGBKT7, prey pGADT7; growth on SD/-L-W-A-H; liquid β-galactosidase assay with ONPG.
In assay [2] the target is zinc finger (ZF) domain of SWI3B fused with BD (Arabidopsis thaliana). Described as above.

Results are given in words; binding and its absence hold for the method and conditions named. For some assays here: Binding can be weak; no strength is given. Tags and fused reporters may be left off the sequences shown.

B1: Leaf and Flower Related (LFR), full length, fused with AD (protein, UniProt Q9LS90 1-460)
chain: MQKRELGKSGGNSGGSSGPPAKRGRPFGSTSANSAAAAAAAAAADAMSPSALLGPSLLVHNSFVEQNNRRIVLALQSGLKSEVTWALNTLTLLSFKEKEDIRRDVMPLAKIAGLLDALLLIIDDWRDIALPKDLTRGTRVRTLGTNASVTGFGNEYDALASIQPPGSGIGSSAAEALGKKSTGKHQSSQWWMEEDGLFNLDDEGRSEKQMCAIAASNVIRNFSFMPDNEVVMAQHRHCLETVFQCIHDHMTEDEELVTNSLETIVNLAHLMDLRIFSSLKQSYININEKKAVQAVVGILNSSVKAWNCAAAELLGRLIINPDNEPFISPLIPQIHKRLIDLLSIQAVDAQAAAVGALYNLVEVNMDCRLKLASERWAVDRLLKVIKTPHPVPEVCRKAAMILENLVSEPQNRGLLLAYENAFAELLFQEGKYSDSFARILYELTARSNSRVASARGIWGM
As for B1, the values for the binding result in assay [1] and in assay [2] were “binds” and “no binding”, respectively.

Source of the values: publication PMC8385146.
